Results published in publication PMC2654920, “Borrelia recurrentis Employs a Novel Multifunctional Surface Protein with Anti-Complement, Anti-Opsonic and Invasive Potential to Escape Innate Immunity” (PLoS ONE, 2009).

Key:
Assay in all cases: ELISA; microtiter plates coated with non-denatured HcpA or deletion mutants (1 µg/ml), incubated with CFH (10 µg/ml) or PLG (20 µg/ml) for 1 h at RT; goat anti-CFH or goat anti-PLG; both purified
[1] = molecular target: T1, HcpA deletion mutant, residues 48-175 (B. recurrentis A1) (UniProt C1L349)
T1 sequence: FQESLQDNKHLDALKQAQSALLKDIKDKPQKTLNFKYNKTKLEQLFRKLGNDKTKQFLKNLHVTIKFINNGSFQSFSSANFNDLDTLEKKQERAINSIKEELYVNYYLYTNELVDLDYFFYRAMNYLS

[2] = molecular target: T2, HcpA deletion mutant, residues 18-145 (B. recurrentis A1) (UniProt C1L349)
T2 sequence: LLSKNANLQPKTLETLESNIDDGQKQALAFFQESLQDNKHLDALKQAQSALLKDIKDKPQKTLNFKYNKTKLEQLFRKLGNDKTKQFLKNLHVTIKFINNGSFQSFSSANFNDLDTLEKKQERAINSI

[3] = molecular target: T3, HcpA deletion mutant, residues 18-115 (B. recurrentis A1) (UniProt C1L349)
T3 sequence: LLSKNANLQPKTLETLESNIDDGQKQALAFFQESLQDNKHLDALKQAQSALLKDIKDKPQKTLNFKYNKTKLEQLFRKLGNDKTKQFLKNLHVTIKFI

[4] = molecular target: T4, HcpA deletion mutant, residues 78-175 (B. recurrentis A1) (UniProt C1L349)
T4 sequence: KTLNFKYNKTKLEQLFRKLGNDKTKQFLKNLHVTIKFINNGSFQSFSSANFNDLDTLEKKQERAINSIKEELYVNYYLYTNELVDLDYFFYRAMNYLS

Measured: binding

human plasminogen
binds: [1] | [2] | [3] | [4]

Results are given in words; binding and its absence hold for the method and conditions named. A result given as binding can be weak or reduced; the word gives no strength.
